Laboratory results reported in the supplement of paper PMC12889115.
This is one part of the list. Values are raw readings; no control value is given beside them.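 In the initial screen, polymyxin B was used at a concentration that permeabilizes Salmonella's outer membrane but not its inner membrane. Maximum growth was set by DMSO wells with or without polymyxin B. Since plates varied, data were ranked per plate, and compounds giving the lowest OD600 advanced as hits.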

Tested on: Salmonella enterica serovar Typhimurium SL1344
Assay: bacterial growth OD600 after 18 h with compound and polymyxin B; higher = more bacterial growth (less inhibition)
Details: 50 µM, Mueller-Hinton broth

CCC(=O)N[C@@H]1c2ccccc2C2(CCN(Cc3ccc(OC)c(C)c3OC)CC2)[C@H]1OCCOC
bacterial growth OD600 (polymyxin B 0.75 µg/mL): 0.717

CCC1CN(Cc2cccc(OC)c2O)Cc2cc(OC)ccc2O1 (stereo not drawn)
bacterial growth OD600 (polymyxin B 0.75 µg/mL): 0.806

Cc1c(-c2ccc(F)cc2)[nH]c2ccc(CNC(=O)CCn3cnnn3)cc12
bacterial growth OD600 (polymyxin B 1 µg/mL): 0.523

CCOc1ccc(CN2CCC(N3CCC(C(=O)NC(C)C)CC3)CC2)cc1
bacterial growth OD600 (polymyxin B 1 µg/mL): 0.903

CN(Cc1cccc(O)c1)CC1CCCN(CCc2ccc(Cl)cc2)C1 (stereo not drawn)
bacterial growth OD600 (polymyxin B 1 µg/mL): 0.648

CC(=O)c1ccc(-c2cc(F)cc3c2OC(CNC(=O)Cc2cccc(F)c2)C3)s1 (stereo not drawn)
bacterial growth OD600 (polymyxin B 0.75 µg/mL): 0.645

CC(C)CN1C(=O)NC(Cc2cccc(F)c2)(C2CCN(C(=O)c3cc(C4CC4)n[nH]3)CC2)C1=O (stereo not drawn)
bacterial growth OD600 (polymyxin B 0.75 µg/mL): 0.867

COc1cc(Cl)c(CN2CCCC(CO)(Cc3cccc(Cl)c3)C2)cc1OC (stereo not drawn)
bacterial growth OD600 (polymyxin B 1 µg/mL): 0.531
